PubChem BioAssay AID1259308 – NCATS | 2017
The deposit covers about 59,000 reagents; shown is an unselected part. In the full data, about 1,510 (2.6%) got an active call. 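Calls use total luciferase alone and ignore viability, so some active siRNAs may act by altering cell number.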 The numbers tell different reagents against one gene apart. Further read-outs or replicates are left out here. Reagent sequences are not shown.

Screen: 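Genes whose loss raises luciferase production in HEK293 cells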 (primary screen)
Cell system: human HEK293 embryonic kidney cells stably expressing firefly luciferase (HEK-CMV-Luc2-Hygro)
Reagent: single siRNA against human genes, 0.8 pmol siRNA per well
Time to read-out: 72 h
Detection: 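Reporter luminescence and viable-cell signal on separate replicate plates, given as percent of non-targeting control and median/MAD z-scores, plus per-cell luciferase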
Reading the numbers: total luciferase, z-score: higher = more reporter protein produced
Hit rule: 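An siRNA counts as active if its total luciferase robust z-score exceeds 3; genes with two or more such siRNAs out of three were retested with fresh siRNAs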
Meaning of the calls: active = raised luciferase; inactive = no rise

total luciferase, z-score, by target gene and reagent
MROH1: #1 -0.139 inactive; #2 -1.78 inactive; #3 -0.826 inactive
OCM2: #1 1.06 inactive; #2 -0.82 inactive; #3 0.0113 inactive
MELK: #1 -0.629 inactive; #2 0.0315 inactive; #3 -1.28 inactive
TCF7L1: #1 -2.14 inactive; #2 0.527 inactive; #3 0.35 inactive
RGS22: #1 -0.0443 inactive; #2 1.16 inactive; #3 0.369 inactive

Single entries from the entries so far.
Under “total luciferase, z-score”, OCM2 #1 has 1.06
TCF7L1 #3, total luciferase, z-score → 0.35

The results go on.
total luciferase, z-score, by target gene and reagent
ASB13: #1 0.0603 inactive; #2 -0.888 inactive; #3 0.28 inactive
UBQLNL: #1 0.172 inactive; #2 -1.31 inactive; #3 -0.208 inactive
PTPRF: #1 -0.479 inactive; #2 1.58 inactive; #3 -0.0321 inactive
TMEM106C: #1 -0.252 inactive; #2 0.684 inactive; #3 -1.18 inactive
TP53I11: #1 -0.608 inactive; #2 1.2 inactive; #3 0.596 inactive
TOB1: #1 0.484 inactive; #2 -0.646 inactive; #3 0.16 inactive
IL17D: #1 -1.47 inactive; #2 -0.438 inactive; #3 -0.248 inactive
PDIK1L: #1 -1.58 inactive; #2 0.23 inactive; #3 0.748 inactive
